Paper doi:10.1101/2020.07.25.220095
Results are given in words; binding and its absence hold for the method and conditions named. In cells and extracts the contact can be indirect. Tags and fused reporters may be left off the sequences shown.

Legend:
[1] = molecular target: T1, Puf4 (TAP-tagged version) (S. cerevisiae (TAP-tagged yeast strain)) (UniProt P25339); assay: pull-down
T1 sequence: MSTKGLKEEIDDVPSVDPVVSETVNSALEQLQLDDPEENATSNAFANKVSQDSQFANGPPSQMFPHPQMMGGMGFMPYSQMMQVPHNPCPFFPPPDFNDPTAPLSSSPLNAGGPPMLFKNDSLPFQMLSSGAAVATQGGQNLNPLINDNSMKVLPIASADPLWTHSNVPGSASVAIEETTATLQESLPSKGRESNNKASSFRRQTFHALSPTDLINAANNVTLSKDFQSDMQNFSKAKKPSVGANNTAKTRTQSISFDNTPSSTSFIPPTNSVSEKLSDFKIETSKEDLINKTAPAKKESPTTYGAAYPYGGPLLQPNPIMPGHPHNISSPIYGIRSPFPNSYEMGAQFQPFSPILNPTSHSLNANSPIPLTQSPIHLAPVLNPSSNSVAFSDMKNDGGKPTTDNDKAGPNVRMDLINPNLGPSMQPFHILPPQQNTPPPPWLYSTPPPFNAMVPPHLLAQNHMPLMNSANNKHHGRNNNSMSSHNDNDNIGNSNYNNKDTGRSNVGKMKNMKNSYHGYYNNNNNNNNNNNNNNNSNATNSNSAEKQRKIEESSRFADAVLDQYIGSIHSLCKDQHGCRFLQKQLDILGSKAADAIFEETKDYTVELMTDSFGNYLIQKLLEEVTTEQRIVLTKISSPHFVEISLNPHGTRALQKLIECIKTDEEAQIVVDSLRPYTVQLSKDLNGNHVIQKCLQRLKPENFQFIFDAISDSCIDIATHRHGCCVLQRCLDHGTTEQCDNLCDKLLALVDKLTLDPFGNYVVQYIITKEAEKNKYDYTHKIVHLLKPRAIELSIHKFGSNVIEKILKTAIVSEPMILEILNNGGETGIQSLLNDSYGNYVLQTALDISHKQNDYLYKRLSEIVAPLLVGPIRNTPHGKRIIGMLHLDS

[2] = molecular target: T2, Puf5 (TAP-tagged version) (S. cerevisiae (TAP-tagged yeast strain)) (UniProt P39016); assay: pull-down
T2 sequence: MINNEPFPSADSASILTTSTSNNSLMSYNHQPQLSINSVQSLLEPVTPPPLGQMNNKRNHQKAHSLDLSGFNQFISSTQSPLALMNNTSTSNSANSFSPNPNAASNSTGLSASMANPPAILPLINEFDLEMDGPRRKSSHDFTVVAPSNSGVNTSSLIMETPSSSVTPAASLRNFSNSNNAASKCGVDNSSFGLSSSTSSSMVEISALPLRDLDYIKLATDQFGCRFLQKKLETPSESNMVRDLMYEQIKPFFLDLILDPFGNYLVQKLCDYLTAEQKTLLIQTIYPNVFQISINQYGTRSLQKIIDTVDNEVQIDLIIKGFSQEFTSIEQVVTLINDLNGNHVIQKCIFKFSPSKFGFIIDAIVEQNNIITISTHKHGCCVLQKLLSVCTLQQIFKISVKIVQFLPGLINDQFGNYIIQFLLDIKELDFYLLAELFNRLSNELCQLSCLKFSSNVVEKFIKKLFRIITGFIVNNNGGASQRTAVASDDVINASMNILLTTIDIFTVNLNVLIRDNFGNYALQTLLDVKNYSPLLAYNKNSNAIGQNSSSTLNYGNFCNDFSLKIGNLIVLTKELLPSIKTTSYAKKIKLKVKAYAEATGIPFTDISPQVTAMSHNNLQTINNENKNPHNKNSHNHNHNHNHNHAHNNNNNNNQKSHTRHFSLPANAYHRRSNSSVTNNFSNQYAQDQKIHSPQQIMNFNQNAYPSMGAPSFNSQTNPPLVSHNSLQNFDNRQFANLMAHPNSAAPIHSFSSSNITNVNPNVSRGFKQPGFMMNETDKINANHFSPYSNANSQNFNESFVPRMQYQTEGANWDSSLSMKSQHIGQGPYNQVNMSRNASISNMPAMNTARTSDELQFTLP

- binding [1]: no binding
- binding [2]: no binding
B1: Rpb4 (protein, UniProt P20433 1-221)
chain: MNVSTSTFQTRRRRLKKVEEEENAATLQLGQEFQLKQINHQGEEEELIALNLSEARLVIKEALVERRRAFKRSQKKHKKKHLKHENANDETTAVEDEDDDLDEDDVNADDDDFMHSETREKELESIDVLLEQTTGGNNKDLKNTMQYLTNFSRFRDQETVGAVIQLLKSTGLHPFEVAQLGSLACDTADEAKTLIPSLNNKISDDELERILKELSNLETLY
